In PubChem BioAssay AID504847 (National Center for Advancing Translational Sciences (NCATS), 2011):
In all, about 400,000 compounds went through this assay and about 3,700 (0.93%) were called active. The shares of active, inactive and inconclusive entries below differ from those in the screen. Calls follow the shape of the dose curve; as a rule, active = well fitted inhibition curve with a large enough effect; inconclusive = small, poorly fitted or top-dose-only effect, or another doubt; inactive = no such curve, though single readings can be large or run the other way. Potencies of inconclusive entries are doubtful fits and often do not repeat. The source holds several records for some structures; these can differ, active in one and inactive in another.

By UniProt entry, the sequences of proteins in these tests, tags left out. Where a name states a change or a piece, a line headed by the entry shows the natural chain unless it says otherwise.
UniProt P11473: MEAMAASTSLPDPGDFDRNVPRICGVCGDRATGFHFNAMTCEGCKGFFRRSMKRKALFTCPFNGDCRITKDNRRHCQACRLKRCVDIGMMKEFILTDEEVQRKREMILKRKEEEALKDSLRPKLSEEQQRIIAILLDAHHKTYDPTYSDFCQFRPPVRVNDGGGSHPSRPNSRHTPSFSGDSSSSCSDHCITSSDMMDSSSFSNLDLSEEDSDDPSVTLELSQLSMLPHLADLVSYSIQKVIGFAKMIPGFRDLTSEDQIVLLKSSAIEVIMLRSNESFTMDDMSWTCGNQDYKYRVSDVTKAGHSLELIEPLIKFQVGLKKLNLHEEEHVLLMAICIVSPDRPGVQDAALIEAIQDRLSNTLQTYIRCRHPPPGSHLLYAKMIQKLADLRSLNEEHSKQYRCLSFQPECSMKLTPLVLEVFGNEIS

target: Vitamin D3 receptor (Homo sapiens) (UniProt P11473); assay: Inhibitors of the vitamin D receptor (VDR): qHTS; settings: VDR-SRC2-3 peptide fluorescence polarization, 2 h; max response, negative = inhibition: stronger effect = lower value
How it was run: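 Signal is fluorescence polarization, reporting how far test compounds block the interaction of VDR with the SRC2-3 coregulator peptide after a 2 h room-temperature incubation.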
% is scaled to controls: 0 for no effect and ±100 for the full control effect; potency is read from the fitted curve at half-maximal effect.

SMILES	Potency	max response, negative = inhibition
CCC1CSC(Nc2ccc(C(=O)/C=C/c3ccc(Br)cc3)cc2)=N1 (stereo not drawn)	inconclusive: 12.6 µM [inhibitor, partial curve, poor fit]	–
C[C@H]1CN([C@@H](C)CO)C(=O)Cc2cc(NC(=O)C3CC3)ccc2O[C@H]1CN(C)Cc1ccc(C(=O)O)cc1	inconclusive: 0.631 µM [inhibitor, full curve, poor fit]	–
O=C(NCc1cccnc1)c1cccn1-c1ncc(C(F)(F)F)cc1Cl	inconclusive: 89.1 µM [inhibitor, single point]	–
O=S(=O)(c1ccc(F)cc1)N1CCN(C(=S)NC2CC2)CC1	inconclusive: 89.1 µM [inhibitor, single point]	–
Oc1ccc(CN2CCCc3ccccc32)c2cccnc12	active: 79.4 µM	–
COc1cccc(CNS(=O)(=O)c2c(C(=O)N3CCCCCC3)c(C)n(C)c2C)c1	–	inactive: -15.8%
O=c1[nH]cccc1-c1nc2ccccc2n1Cc1ccccc1F	inconclusive: 79.4 µM [inhibitor, partial curve, poor fit]	–
O=C(Cc1ccccc1)Nc1sc2c(c1C(=O)Nc1ccc(Cl)cc1)CCCC2	active: 28.2 µM	–
S=C1NC[C@H](CC2CCCCC2)N1CC1CCCCC1	inconclusive: 35.5 µM [inhibitor, partial curve, poor fit]	–
CC1=CN2C(=N)/C(=C/c3ccc([N+](=O)[O-])o3)C(=O)N=C2S1	inconclusive: 70.8 µM [inhibitor, partial curve, poor fit]	–
COC(=O)CNC(=O)C1(C)C=CCN1C(=O)c1ccccc1 (stereo not drawn)	inconclusive: 112 µM [inhibitor, partial curve, poor fit]	–
O=C1NC(c2cccc(OCc3ccccc3)c2)Nc2ccccc21 (stereo not drawn)	–	inactive: -0.356%
Cc1cc(C(=O)N/N=C\C(Br)=C\c2ccccc2)c(C)o1	inconclusive: 100 µM [inhibitor, single point]	–
Cc1ccc(NC(=O)/C(C#N)=C/c2cc(C)n(-c3ccc(F)cc3)c2C)cc1C	–	inactive: -13.7%
CCCCC(=O)NC(c1ccc(Cl)cc1)c1ccc2cccnc2c1O (stereo not drawn)	inconclusive: 20 µM [inhibitor, partial curve, poor fit]	–
OCCNc1nc(Nc2ccc(O)cc2)nc2ccccc12	–	inactive: 16.1%
CCCCN1CCCc2cc(CN(CCCN3CCOCC3)C(=O)Nc3ccc(OCC)cc3)ccc21	–	inactive: 22.4%
Cc1ccc(C)c(NC(=O)COc2coc(CN3CCc4ccccc43)cc2=O)c1	–	inactive: -6.5%
O=C1CCCN2N=C(SCC(=O)N3CCCCC3)SC2=N1	inconclusive: 79.4 µM [inhibitor, partial curve, poor fit]	–
CCCCC(c1nnnn1CC1CCCO1)N1CCN(c2nc3ccccc3s2)CC1 (stereo not drawn)	–	inactive: -14.4%
CC1CCc2c(sc(NC(=O)c3nc4ncccn4n3)c2C#N)C1 (stereo not drawn)	inconclusive: 79.4 µM [inhibitor, partial curve, poor fit]	–
Cc1nc(NCc2ccccc2)sc1C(=O)Nc1ccccc1	–	inactive: -14.6%

SMILES	Potency	max response, negative = inhibition
CC(C)OC(=O)c1c(NC(=O)C2CC=CCC2C(=O)O)sc2c1CCCCC2 (stereo not drawn)	inconclusive: 89.1 µM [inhibitor, single point]	–
Oc1ccc(Cl)cc1C1C=C(c2ccc3c(c2)OCO3)NC(c2ccc(C(F)(F)F)cc2)N1 (stereo not drawn)	inconclusive: 70.8 µM [inhibitor, partial curve]	–
CCOc1cc(/C=C\c2nc(O)c([N+](=O)[O-])c(=O)[nH]2)ccc1OC(C)CC (stereo not drawn)	inconclusive: 22.4 µM [inhibitor, full curve, poor fit]	–
COc1ccc(NC(=O)CN(c2c(C)cccc2C)S(C)(=O)=O)cc1	–	inactive: -24.4%
CS(=O)(=O)Nc1cccc(-c2nccc(-n3ccnc3)n2)c1	inconclusive: 70.8 µM [inhibitor, partial curve]	–
COc1ccc(C(=O)n2nc(-c3ccco3)nc2NCc2cccs2)cc1	–	inactive: 18.8%
N[C@@H](CSS(=O)(=O)O)C(=O)O	active: 10 µM	–
COc1ccc(NC(=O)C2(N(CC(C)C)C(=O)Cn3nnnc3N)CCCCC2)cc1	inconclusive: 11.2 µM [inhibitor, partial curve, poor fit]	–
CN(C)c1ccc(N/C=C/C(=O)c2ccccc2)cc1	active: 79.4 µM	–
COc1ccc(-c2nc(-c3ccccc3)c(-c3ccc(O)cc3)[nH]2)cc1	–	inactive: 7.64%
Cc1cc(C)c(S(=O)(=O)/N=C2/C=C(Sc3ncn[nH]3)C(=O)c3ccccc32)cc1C	inconclusive: 10 µM [inhibitor, full curve, poor fit]	–
Cc1ccc(C(=O)ON=C2CCN(S(=O)(=O)c3ccccc3)CC2)cc1	inconclusive: 39.8 µM [inhibitor, single point]	–
COC(=O)c1ccc(CSC2=NC[C@@H]3[C@@H]4C(=O)N(Cc5ccccc5)C(=O)[C@@H]4[C@](C)(C(=O)OC)N23)cc1	–	inactive: 14.6%
CCCCN1C(=O)C(=O)N(CC(=O)Nc2cc(OCC)c(N3CCOCC3)cc2OCC)C1=O	–	inactive: -3.37%
COc1ccc(CN2CCN(Cc3ccc(C)cc3)C(CCO)C2)cc1OC (stereo not drawn)	inconclusive: 89.1 µM [inhibitor, partial curve, poor fit]	–
CCCCC#Cc1nc(NC)c2ncn([C@@H]3O[C@H](CO)[C@@H](O)[C@H]3O)c2n1	–	inactive: -3.17%
O=C(c1cnccn1)N1CCC2(CCCN(c3cccc(-c4ccccc4)c3)C2)CC1	active: 35.5 µM	–
CC[C@H]1C(O)C[C@H]2CCN3C(=O)CCC[C@H]1[C@H]23 (stereo partly drawn)	inconclusive: 17.8 µM [inhibitor, partial curve, poor fit]	–
Cc1cccc(NC2=NC(C)(C)N=C(N)N2)c1C	active: 25.1 µM	–
C=CCOc1ccc(C(=O)/C=C2/C(=O)Nc3ccccc32)cc1	inconclusive: 2.24 µM [inhibitor, partial curve, poor fit]	–
CC1=C/C(=N\OS(=O)(=O)c2ccccc2)C(C(C)C)=CC1=O	inconclusive: 79.4 µM [inhibitor, partial curve]	–

Structural class: the entries above with a cyano group
SMILES	Potency	max response, negative = inhibition
Cc1ccc(NC(=O)/C(C#N)=C/c2cc(C)n(-c3ccc(F)cc3)c2C)cc1C	–	inactive: -13.7%
CC1CCc2c(sc(NC(=O)c3nc4ncccn4n3)c2C#N)C1 (stereo not drawn)	inconclusive: 79.4 µM [inhibitor, partial curve, poor fit]	–
